## Results of single-concentration screens

The chains behind the UniProt entries cited, without tags or fusion partners.
UniProt P9WFT3, whole entry: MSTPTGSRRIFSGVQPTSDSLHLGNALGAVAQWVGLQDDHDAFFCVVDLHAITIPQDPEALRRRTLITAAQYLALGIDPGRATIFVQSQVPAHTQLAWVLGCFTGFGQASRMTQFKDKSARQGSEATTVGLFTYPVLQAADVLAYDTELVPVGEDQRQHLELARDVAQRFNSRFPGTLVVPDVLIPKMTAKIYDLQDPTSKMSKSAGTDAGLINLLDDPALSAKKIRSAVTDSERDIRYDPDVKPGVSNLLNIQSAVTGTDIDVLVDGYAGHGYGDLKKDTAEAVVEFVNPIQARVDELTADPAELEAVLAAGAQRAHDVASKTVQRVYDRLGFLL

Data taken from ChEMBL document CHEMBL3988442, “University of Dundee, Small-Polar-MMV Screening Library” (2021).

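Enzyme assay of tryptophanyl-tRNA synthetase; the read-out is not stated. Target: Tryptophan-tRNA ligase, Mycobacterium tuberculosis (UniProt P9WFT3). Tested at 10 µM. Higher most likely means stronger inhibition; the record gives no direction and few retests gave an IC50. Of about 65,000 compounds tested this way, about 64 (0.098%) reached 50% or more in at least one test.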

Values are the deposited “Percent Effect”, in %. The record does not define 0% and 100%; most values in the screen are far below 50% and negative numbers occur (in some assays of this library far below -100). Compounds were drawn at random from those tested, without regard to their results.

compound,Percent Effect
CNC(=O)[C@@]12CCO[C@@H]1CCN(S(=O)(=O)c1cccc(C)c1)C2,1.133%
COc1cc(C(=O)NCCCO)cc2occc12,0.9332%
O=S(=O)(C1CC1)N1CCCC2(COCCN(c3nncs3)C2)C1 (stereo not drawn),12.26%
CC1=NC2(CCN(CC(C)c3ccccc3)CC2)C(=O)N1 (stereo not drawn),-7.946%
Cc1cc2cc(CNC3CCN(CC(=O)N(C)C)CC3)oc2cc1C,1.342%
Fc1cccc(-n2cc(CN3CCCCC3CCn3ccnc3)cn2)c1 (stereo not drawn),0.2981%
COc1cc(CNC2CCCN(c3ncccn3)C2)cc2c1OCO2 (stereo not drawn),1.729%
O=C(NC1CC1)N1CCc2ccc(=O)n(CC3CC3)c2CC1,-4.44%
Cc1nc(C2CCN(S(=O)(=O)c3ccc(Cl)cc3)CC2)n[nH]1,-1.312%
Cn1cc(CNC2CCc3ncnn3C2)c(-c2ccncc2)n1 (stereo not drawn),-3.027%
CCCc1nc(N2CCC(C)CC2)c2c(n1)c(C)nn2CC,5.465%
CCN1CCCC1CN(Cc1cc[nH]n1)CC1CCN(CCOC)CC1 (stereo not drawn),-6.173%
N#Cc1cccnc1N1CCCN(C(=O)CCn2cncn2)CC1,-0.5206%
Cc1csc(C2CCCN(C(=O)c3cccc4c3OCO4)C2)n1 (stereo not drawn),0.2556%
O=C(NCCCOCC1CCCO1)c1cccnc1N1CCCC1 (stereo not drawn),0.3752%
CC(=O)Nc1cc(CN(C)C)ccc1C,3.128%
CC(C)Cc1noc(CN2CCCC2c2noc(C3CC3)n2)n1 (stereo not drawn),-7.345%
CCN1CCN(C)C2(CCN(Cc3ccsc3)CC2)C1=O,-5.473%
Nc1ccnc(N2CCC(CCc3ccccc3)(C(=O)O)CC2)n1,6.91%
O=C(NCc1cccnc1)c1cn(CCc2ccccc2)nn1,5.028%
CCCN1CCCn2nc(CNS(=O)(=O)c3cnn(CC)c3)cc2C1,2.001%
O=C(Nc1ccccc1)C1=NOC2(CCCNC2)C1 (stereo not drawn),21.1%
CC(C)c1nc(C2CCCN2c2cnc3cc(F)c(F)cc3n2)no1 (stereo not drawn),-4.681%
CN(C)C1Cc2ccccc2N(S(=O)(=O)c2ccc(C#N)cc2)C1 (stereo not drawn),0.7048%
Cc1nc(CO[C@@H]2CN(Cc3ccsc3)[C@@H]3COC[C@@H]32)cs1,0.1501%
CCOc1ncccc1NC(=O)NC1CCN(c2ncccn2)CC1,0.9654%
CC(C)C(C(=O)N(C)C)c1cccc(Cl)c1 (stereo not drawn),-2.053%
N#Cc1ccc(Oc2cc(F)c(CN3CCCC3)c(F)c2)nc1,0.2981%
CCOC(=O)N1CCN(C(=O)c2ccc3ccn(C)c3c2)CC1,-1.42%
Cc1ccc(-c2nc(CC(=O)N3CCCC(NC(=O)C(C)C)C3)cs2)o1 (stereo not drawn),-4.678%
CCN(c1ccsc1C(=O)N1CCC(C)CC1)S(=O)(=O)c1ccccc1,2.376%
Cn1cnc2c1C(C(=O)N1CCCO1)N(C(=O)c1ccccc1)CC2 (stereo not drawn),3.391%
O=C(Cc1cccc(F)c1)NCCNCC1CNc2ccnn2C1 (stereo not drawn),-1.852%
O=C(CCc1ccccn1)N1CCc2cc(Cl)cc(Cl)c2C1,0.9114%
O=C(Nc1cnn(Cc2ccc(Cl)cc2)c1)N1CCCC1CO (stereo not drawn),-1.38%
CCCc1nc(C)c(C(=O)NCCN2CCN(CC)CC2)s1,0.07337%
Cc1ccc(C)c(OCCC(=O)N2CCCN(CC(N)=O)CC2)c1,-4.011%
O=S(=O)(NC[C@H]1C[C@@H]2CCN1C[C@@H]2CN1CCCCC1)c1ccccc1,-4.593%
Cc1csc(CNC(=O)N(C)Cc2ccc([S+](C)[O-])cc2)n1 (stereo not drawn),-4.497%
Cc1cc(C)n(CC2CCCN2CCc2ccccn2)n1 (stereo not drawn),-6.552%
CN1CC[C@H](c2nnc(Cc3c[nH]c4ccccc34)o2)C1,0.2288%
Cc1ccccc1C(NC(=O)Cn1cc(C2CC2)nn1)C1CC1 (stereo not drawn),-6.067%
CN(C)C(=O)C1OC2(CCNCC2)c2ccccc21 (stereo not drawn),0.4149%
CCCN1CCCC2(CCN(c3nc(C)nc4ccsc34)C2)C1=O (stereo not drawn),-4.334%
CCc1ncc(C(=O)NCCNc2ncnc3sccc23)s1,5.828%
CCN(C)c1ccc(CNS(=O)(=O)CC2CCCO2)cc1F (stereo not drawn),-9.59%
COc1ccc(CN2CCC3(CCCN(C)C3=O)C2)c(Cl)c1OC (stereo not drawn),4.917%
COc1ccc(C2(NC(=O)C3CC(=O)N(C)C3)CCCC2)cc1 (stereo not drawn),-0.9492%
Cn1nnc2c1C(COCC1CC1)CN(Cc1ccoc1)C2 (stereo not drawn),-2.79%
NCCc1c(-c2ccc(F)cc2)[nH][nH]c1=O,5.272%
CCCC(=O)NCc1ccc(N2CCCCC2)cc1,1.826%
CNc1cc(C)nc(N2CCN(Cc3ccccc3)CC(O)C2)n1 (stereo not drawn),-3.645%
CN1CCCN(C(=O)c2cnc(C(C)(C)C)nc2O)CC1,-4.252%
CC(NC(=O)N1CCNC(=O)CC1)c1ccc(OC(F)F)cc1 (stereo not drawn),-2.169%